Drawing on PMC9813592, “A genetic screen in Arabidopsis reveals the identical roles for RBP45d and PRP39a in 5’ cryptic splice site selection”, this text covers binding for 2 molecules.

These are yes or no findings as the source states them, for the method shown.

One assay addresses T1, U1A (Arabidopsis) (UniProt Q39244).
T1 sequence: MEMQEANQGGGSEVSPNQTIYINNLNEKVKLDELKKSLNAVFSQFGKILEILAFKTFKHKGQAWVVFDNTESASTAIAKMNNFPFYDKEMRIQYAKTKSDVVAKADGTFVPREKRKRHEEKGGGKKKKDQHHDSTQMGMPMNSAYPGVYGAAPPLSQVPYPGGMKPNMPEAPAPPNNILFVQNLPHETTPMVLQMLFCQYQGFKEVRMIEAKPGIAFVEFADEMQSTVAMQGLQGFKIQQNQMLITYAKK
The experiment in a line: two-hybrid; yeast strain AH109; fusions from pDEST22 and pDEST32; transformants selected on SD-Leu-Trp; interactions tested on SD-Trp-Leu-His with or without 5 mM 3-AT.

Assay [1] has as its target T2, U1-70K (Arabidopsis), Q42404.
T2 chain: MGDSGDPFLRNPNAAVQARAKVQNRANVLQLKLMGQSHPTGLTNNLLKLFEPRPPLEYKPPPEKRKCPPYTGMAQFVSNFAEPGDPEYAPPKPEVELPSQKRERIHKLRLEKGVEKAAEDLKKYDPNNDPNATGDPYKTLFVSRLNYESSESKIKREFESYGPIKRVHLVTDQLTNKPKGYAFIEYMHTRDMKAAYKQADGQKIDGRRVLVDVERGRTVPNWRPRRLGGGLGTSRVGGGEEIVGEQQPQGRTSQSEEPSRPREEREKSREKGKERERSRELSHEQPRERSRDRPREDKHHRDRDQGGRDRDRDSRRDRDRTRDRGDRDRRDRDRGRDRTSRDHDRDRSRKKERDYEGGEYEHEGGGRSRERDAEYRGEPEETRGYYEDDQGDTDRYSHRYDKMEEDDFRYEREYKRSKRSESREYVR
Described as above. The conditions noted are these: remark: other sources report otherwise.

B1: RBP45d (protein, UniProt Q8VXZ9 1-425)
chain: MAMMHPPQPPQGSYHHPQTLEEVRTLWIGDLQYWVDENYLTSCFSQTGELVSVKVIRNKITGQPEGYGFIEFISHAAAERTLQTYNGTQMPGTELTFRLNWASFGSGQKVDAGPDHSIFVGDLAPDVTDYLLQETFRVHYSSVRGAKVVTDPSTGRSKGYGFVKFAEESERNRAMAEMNGLYCSTRPMRISAATPKKNVGVQQQYVTKAVYPVTVPSAVAAPVQAYVAPPESDVTCTTISVANLDQNVTEEELKKAFSQLGEVIYVKIPATKGYGYVQFKTRPSAEEAVQRMQGQVIGQQAVRISWSKNPGQDGWVTQADPNQWNGYYGYGQGYDAYAYGATQDPSVYAYGGYGYPQYPQQGEGTQDISNSAAGGVAGAEQELYDPLATPDVDKLNAAYLSVHASAILGRPMWQRTSSLTSQLGK
As to B1, the binding entry with U1A (Arabidopsis) is recorded as “no binding”.

B2: RBP45d, Q8VXZ9 1-425 (protein)
chain: B1 chain
Turning to B2, the binding entry in assay [1] is listed as “no binding”.
